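MCF 10A normal breast cells exposed to compound for 48 hr, then Hoechst-stained and imaged for nuclear DNA content as a sign of re-replication. The compounds were tested as a dilution series from about 0.0029 to 46 µM. The number is the fitted potency (AC50, nM) for inducing re-replication, and a lower value means a more potent compound. Curve class and fitted potency set a score; scores of 40–100 are called active and scores of 1–39 are called inconclusive.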

Values are in nM. All entries here are filed as inconclusive. Only part of the assay is shown, chiefly results filed as inconclusive. Potencies fitted to partial, single-point or poorly fitting curves are rough. Some entries filed as inconclusive have a full curve. Activity scores are not listed here.

{"structure": "Nc1nc(Cl)nc2c1ncn2[C@@H]1O[C@H](CO)[C@H](O)[C@H]1O", "fitted potency (nM)": "22387", "remark": "activator, single point"}
{"structure": "S=C(S)OC1CC2CC1C1CCCC21", "stereo": "centres undefined", "fitted potency (nM)": "35481", "remark": "activator, single point"}
{"structure": "c1cc(CN2CCCCC2)cc(OCCCNc2nc3ccccc3s2)c1", "fitted potency (nM)": "12589", "remark": "activator, partial curve"}
{"structure": "C=CC1(C)CC(=O)C2(O)C(C)(O1)C(OC(C)=O)C(O)C1C(C)(C)CCC(O)C12C", "stereo": "centres undefined", "fitted potency (nM)": "12589", "remark": "activator, partial curve"}
{"structure": "CN1C[C@H](C(=O)N[C@]2(C)O[C@@]3(O)C4CCCN4C(=O)[C@H](Cc4ccccc4)N3C2=O)C[C@@H]2c3cccc4[nH]cc(c34)C[C@H]21", "stereo": "some centres undefined", "fitted potency (nM)": "15848", "remark": "activator, partial curve"}
{"structure": "CN1C2CCC1CC(OC(c1ccccc1)c1ccc(Cl)cc1)C2", "stereo": "centres undefined", "fitted potency (nM)": "11220", "remark": "activator, partial curve"}
{"structure": "S=C(S)N1CCCC1", "fitted potency (nM)": "7943", "remark": "activator, partial curve"}
{"structure": "CN(C)C(=O)C(CCN1CCC(O)(c2ccc(Cl)cc2)CC1)(c1ccccc1)c1ccccc1", "fitted potency (nM)": "31622", "remark": "activator, single point"}
{"structure": "CCCCCCCCCCCCCCCCCCOC[C@H](COP(=O)([O-])OCC[N+](C)(C)C)OC", "fitted potency (nM)": "28183", "remark": "activator, single point"}
{"structure": "CC[C@H]1CN2CCc3cc(OC)c(OC)cc3[C@@H]2C[C@@H]1C[C@H]1NCCc2cc(OC)c(OC)cc21", "fitted potency (nM)": "158.5", "remark": "activator, full curve"}
{"structure": "CCCn1c(=O)c2[nH]c(C3CCCC3)nc2n(CCC)c1=O", "fitted potency (nM)": "15848", "remark": "activator, partial curve"}
{"structure": "COc1ccc2c(c[n+](C)c3c4cc5c(cc4ccc23)OCO5)c1OC", "fitted potency (nM)": "2818", "remark": "activator, single point"}
{"structure": "CNc1ncnc2c1ncn2[C@@H]1O[C@H](CO)[C@H](O)[C@H]1O", "fitted potency (nM)": "3548", "remark": "activator, full curve"}
{"structure": "CCCCCCCCCCCCCCC[C@H](O)[C@H](N)CO", "fitted potency (nM)": "12589", "remark": "activator, single point"}
{"structure": "COc1cc2nc(N3CCN(C(=O)C4COc5ccccc5O4)CC3)nc(N)c2cc1OC", "stereo": "centres undefined", "fitted potency (nM)": "15848", "remark": "activator, single point"}
{"structure": "COc1ccc2c(c1)/C(=C/c1cnc[nH]1)C(=O)N2", "fitted potency (nM)": "7080", "remark": "activator, partial curve"}

Some entries from above, unchanged:

{"structure": "CNc1ncnc2c1ncn2[C@@H]1O[C@H](CO)[C@H](O)[C@H]1O", "fitted potency (nM)": "3548", "remark": "activator, full curve"}
{"structure": "CCCn1c(=O)c2[nH]c(C3CCCC3)nc2n(CCC)c1=O", "fitted potency (nM)": "15848", "remark": "activator, partial curve"}

Data taken from PubChem BioAssay AID463097, deposited by NCATS (2010).